Measured values: patent publication US20250221936A1, “ENGINEERED HEMICHANNELS, ENGINEERED VESICLES, AND USES THEREOF” (VIRGINIA TECH INTELLECTUAL PROPERTIES, INC., priority 2018, published 2025)
Entries after “also recorded” stand apart in the source; their conditions may differ.

How the values were obtained:
[1] = tested on: exosomes from HeLa Cx43GFP cells; assay: Loading of Cx43GFP exosomes
[2] = tested on: EVs isolated from cow milk; assay: Milk EV loading with Calcein AM; conditions: PBS, 37 C
Protocol: EVs were isolated from cow milk and loaded with neutral non-fluorescent Calcein AM (10 μM) for 48 hours at 37 C in PBS buffer at pH 8.5 (FIG. 30A). […] Purity and integrity of exosomes isolated from cow milk was confirmed by negative stain electron microscopy (EM). FIG. 30B) illustrates an exosome isolated from cow milk. Scale bar=50 nm. The methods described herein of isolation from milk were adapted to obtain high yields of EV, taking particular care not to cause rapid and/or large-scale precipitation of milk casein, as well as in centrifugation steps, which can reduce EV yields from milk.
An exemplar of these methods is shown in FIGS. 31A-31C wherein Milk EVs incubated with Calcein AM show time-(FIG. 31A), pH-(FIG. 31B) and concentration-dependent effects on uptake of Calcein by EVs. Important to this method in the case of Calcein AM, are the multiple chemical groups linked by ester bonds to the molecule, which shield it's negatively charged moieties. Cleavage of these groups by ester bond breaking activities within EVs results in Calcein becoming negatively charged, fluorescent and retained within the EV—as exemplified by the green spots seen in most figure panels in FIG. 31. In FIG. 31A EVs are illustrated that were incubated for 1, 2 or 3 hours in PBS at 37 C at pH 7.4 with Calcein AM (5 μM). […]

In the case of `O=C(O)CN(CC(=O)O)Cc1cc2c(cc1O)Oc1cc(O)c(CN(CC(=O)O)CC(=O)O)cc1C21OC(=O)c2ccccc21` [Calcein], the “period of retention in exosomes” value [1] is reported as “at least 60 minutes”.
For Calcein AM, the “uptake and retention of Calcein by milk EVs” value [2] was “efficient loading and retention of dye in the EVs; also recorded: time dependent uptake; also recorded: pH dependent uptake; also recorded: concentration-dependent uptake; also recorded: increased by raising the alkalinity of the external solution to pH 8.5”.
